In US10777299B2, “Systems and methods for matching oncology signatures” (THE TRUSTEES OF COLUMBIA UNIVERSITY IN THE CITY OF NEW YORK, priority 2015, dated 2020):
For at least one compound, name, drawing or mass did not settle the structure.

Tests used:
[1] = tested on: patient-0 metastasis checkpoint MRs; test: OncoTreat: VIPER-inferred MR reversal after compound perturbation of H-STS cells, patient-0 MRs; assay type: cell-based, human; conditions: H-STS cell perturbation, FIG. 10A
Experimental: (§1) To assess the ability of these compounds to induce Tumor Checkpoint collapse (i.e., global inversion of patient-derived MR activity pattern), gene expression profiles were generated at 6 h and 24 h following perturbation of H-STS cells with two sub-lethal compound concentrations, the 72 h IC20 and 1/10th of that concentration in duplicate. The 24 h time point was considered more informative for long term response. These were produced by 30M SE read Illumina TruSeq profiling of RNA purified from treated cells as well as from cells treated with control media (DMSO). […]
(§2) Drug signatures were analyzed with VIPER to assess the change in protein activity before and after the perturbation. Specifically, RX-GES were generated by differential expression of compound-treated vs. control-vehicle-treated cells at all time points and concentrations and analyzed with VIPER against the EP-NET interactome. […]
FIG. 15 depicts the enrichment of the top 50 most activated (shown in red in the enrichment plots) and the top 50 most deactivated (shown in blue) proteins in patient 0 on the protein activity signature induced by each compound perturbation in the H-STS cell line. […] The colored bar indicates the tissue of origin for each of the evaluated tumors. […]

[2] = tested on: H-STS xenograft checkpoint MRs; test: OncoTreat: VIPER-inferred MR reversal after compound perturbation of H-STS cells, xenograft MRs; assay type: cell-based, human; conditions: H-STS cell perturbation
Experimental: as §1, §2
FIG. 15 depicts the enrichment of the top 50 most activated (shown in red in the enrichment plots) and the top 50 most deactivated (shown in blue) proteins in patient 0 on the protein activity signature induced by each compound perturbation in the H-STS cell line. […] The colored bar indicates the tissue of origin for each of the evaluated tumors.

H-STS xenograft [3] = test: H-STS xenograft tumor growth, follow-up studies at Columbia; assay type: in vivo, mice; conditions: mean of 8 animals
Experimental: (§3) In vivo validation in NOD-SCIDS mice xenografts established by subcutaneous injection of H-STS cells was first conducted at Champions Oncology and then independently confirmed in the mouse hospital facility at Columbia University. Mice were enrolled in treatment arms when tumor size reached 250 mm^3 and were treated for 25 days. Tumor size was measured twice weekly by digital caliper, see methods.
This is in line with the poor effect of Bardoxolone methyl, I-BET151 and Bortezomib on xenograft tumor growth, and the strong abrogation elicited by Entinostat (FIGS. 10B and 10C). In summary, while the effect of the Entinostat, I-BET151 and Bardoxolone methyl on the reversal of patient-0 checkpoint activity inferred from the in vitro H-STS perturbation assay was confirmed in the xenograft model, only Entinostat reverted the activity of the H-STS xenograft checkpoints and abrogated tumor growth (FIG. 10).
FIG. 10A depicts enrichment of patient-0 metastasis checkpoint MRs on the protein activity signatures induced by 6 selected compounds in the H-STS cells. FIGS. 10B and 10C depict growth curves for the H-STS xenograft while treated by vehicle control, and each of the 6 selected compounds. Curves show tumor volume for individual animals (FIG. 10B) or the mean±SEM of 8 animals (FIG. 10C). […]

[4] = tested on: patient-0 checkpoint protein activity; test: Xenograft transcriptome analysis after drug administration, patient-0 checkpoint; assay type: in vivo, mice; conditions: xenograft transcriptome 3 hours after 3rd drug administration
H-STS xenograft [5] = test: H-STS xenograft tumor growth, Champions Oncology (TGI, RECIST, TR); assay type: in vivo; conditions: number of mice per response class
Experimental: All test agents were formulated according to manufacturer's specifications. Beginning Day 0, tumor dimensions were measured twice weekly by digital caliper and data, including individual and mean estimated tumor volumes (Mean TV±SEM), were recorded for each group. Tumor volume was calculated using the formula: […].
At study completion, percent tumor growth inhibition (% TGI) values were calculated and reported for each treatment group (T) versus control (C) using initial (i) and final (f) tumor measurements by the formula: % TGI=[1−(Tf−Ti)/(Cf−Ci)]×100. Individual mice reporting a tumor volume >120% of the Day 0 measurement were considered to have progressive disease (PD). Individual mice with neither sufficient shrinkage nor sufficient tumor volume increases are considered to have stable disease (SD). Individual mice reporting a tumor volume ≤70% of the Day 0 measurement for two consecutive measurements over a seven day period were considered partial responders (PR). If the PR persisted until study completion, percent tumor regression (% TR) was determined using the formula: % TR=(1−Tf/Ti)×100; a mean value was calculated for the entire treatment group. Individual mice lacking palpable tumors for two consecutive measurements over a seven day period were classified as complete responders (CR). All data collected in this study were managed electronically and stored on a redundant server system.
as §3

COC(=O)[C@]12CCC(C)(C)C[C@H]1[C@H]1C(=O)C=C3[C@@]4(C)C=C(C#N)C(=O)C(C)(C)[C@@H]4CC[C@@]3(C)[C@]1(C)CC2 [Bardoxolone methyl]
reversal of patient-0 MRs (in words) [1]: reverting the patient-0 MRs
reversal of xenograft MRs (in words) [2]: not the xenograft MRs
xenograft tumor growth versus vehicle control (FIG. 10C) (H-STS xenograft [3]): weak reduction in tumor growth
inhibition of patient-0 checkpoint protein activity in xenograft (FIG. 10D) [4]: strong inhibition

O=C1NC(=O)[C@@H](c2cn3c4c(cccc24)CCC3)[C@@H]1c1c[nH]c2ccccc12 [Tivantinib]
reversal of patient-0 MRs (in words) [1]: not patient-0 MRs
reversal of xenograft MRs (in words) [2]: reverting the xenograft
RECIST PD/SD/PR/CR (H-STS xenograft [5]; 50 mg): 3/0/0/0
RECIST PD/SD/PR/CR (H-STS xenograft [5]; 100 mg): 3/0/0/0
RECIST PD/SD/PR/CR (H-STS xenograft [5]; 200 mg): 3/0/0/0
